Measured values taken from the supplement of paper PMC8728848.
Some of the results follow.

Tests used:
Assay in all cases: glycan array binding signal (z-score within array); higher = stronger binding
Details in all cases: glycan notation: IUPAC condensed, linker removed
Neu5Ac(a2-3)GalNAc = biological target: Neu5Ac(a2-3)GalNAc
How it was run: (§1)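 The Consortium for Functional Glycomics database supplied 3228 glycan arrays, of which those lacking an available protein sequence were dropped. The binding signal, a within-array Z-score, was averaged across arrays of the same protein sequence and across linkers. Negative scores can be read as non-binding.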

[1] = biological target: Neu5Ac(a2-3)GalNAc(b1-4)GlcNAc
How it was run: as §1

[2] = biological target: Neu5Ac(a2-3)[GalNAc(b1-4)]Gal(b1-4)Glc
How it was run: as §1

[3] = biological target: Neu5Ac(a2-3)[GalNAc(b1-4)]Gal(b1-4)GlcNAc
How it was run: as §1

[4] = biological target: Neu5Ac(a2-3)[GalNAc(b1-4)]Gal(b1-4)GlcNAc(b1-3)GalNAc
How it was run: as §1

[5] = biological target: Neu5Ac(a2-3)[Neu5Ac(a2-6)]GalNAc
How it was run: as §1

Neu5Ac(a2-6)Gal = biological target: Neu5Ac(a2-6)Gal
How it was run: as §1

[6] = biological target: Neu5Ac(a2-6)Gal(b1-3)GlcNAc(b1-3)[Gal(b1-4)GlcNAc(b1-6)]Gal(b1-4)Glc
How it was run: as §1

Neu5Ac(a2-6)Gal(b1-4)Glc = biological target: Neu5Ac(a2-6)Gal(b1-4)Glc
How it was run: as §1

[7] = biological target: Neu5Ac(a2-6)Gal(b1-4)GlcNAc
How it was run: as §1

[8] = biological target: Neu5Ac(a2-6)Gal(b1-4)GlcNAc(b1-2)Man
How it was run: as §1

[9] = biological target: Neu5Ac(a2-6)Gal(b1-4)GlcNAc(b1-2)Man(a1-3)Man(b1-4)GlcNAc(b1-4)GlcNAc
How it was run: as §1

[10] = biological target: Neu5Ac(a2-6)Gal(b1-4)GlcNAc(b1-2)Man(a1-3)[Gal(b1-4)GlcNAc(b1-2)Man(a1-6)]Man(b1-4)GlcNAc(b1-4)GlcNAc
How it was run: as §1

[11] = biological target: Neu5Ac(a2-6)Gal(b1-4)GlcNAc(b1-2)Man(a1-3)[GlcNAc(b1-2)Man(a1-6)]Man(b1-4)GlcNAc(b1-4)GlcNAc
How it was run: as §1

[12] = biological target: Neu5Ac(a2-6)Gal(b1-4)GlcNAc(b1-2)Man(a1-3)[GlcNAc(b1-4)][Neu5Ac(a2-6)Gal(b1-4)GlcNAc(b1-2)Man(a1-6)]Man(b1-4)GlcNAc(b1-4)GlcNAc
How it was run: as §1

[13] = biological target: Neu5Ac(a2-6)Gal(b1-4)GlcNAc(b1-2)Man(a1-3)[Man(a1-6)]Man(b1-4)GlcNAc(b1-4)GlcNAc
How it was run: as §1

[14] = biological target: Neu5Ac(a2-6)Gal(b1-4)GlcNAc(b1-2)Man(a1-3)[Neu5Ac(a2-3)Gal(b1-4)GlcNAc(b1-2)Man(a1-6)]Man(b1-4)GlcNAc(b1-4)GlcNAc
How it was run: as §1

[15] = biological target: Neu5Ac(a2-6)Gal(b1-4)GlcNAc(b1-2)Man(a1-3)[Neu5Ac(a2-6)Gal(b1-4)GlcNAc(b1-2)Man(a1-6)]Man(b1-4)GlcNAc(b1-4)GlcNAc
How it was run: as §1

[16] = biological target: Neu5Ac(a2-6)Gal(b1-4)GlcNAc(b1-2)Man(a1-3)[Neu5Ac(a2-6)Gal(b1-4)GlcNAc(b1-2)Man(a1-6)]Man(b1-4)GlcNAc(b1-4)[Fuc(a1-6)]GlcNAc
How it was run: as §1

[17] = biological target: Neu5Ac(a2-6)Gal(b1-4)GlcNAc(b1-2)Man(a1-6)Man(b1-4)GlcNAc(b1-4)GlcNAc
How it was run: as §1

[18] = biological target: Neu5Ac(a2-6)Gal(b1-4)GlcNAc(b1-2)Man(a1-6)[Gal(b1-4)GlcNAc(b1-2)Man(a1-3)]Man(b1-4)GlcNAc(b1-4)GlcNAc
How it was run: as §1

[19] = biological target: Neu5Ac(a2-6)Gal(b1-4)GlcNAc(b1-2)Man(a1-6)[GlcNAc(b1-2)Man(a1-3)]Man(b1-4)GlcNAc(b1-4)GlcNAc
How it was run: as §1

[20] = biological target: Neu5Ac(a2-6)Gal(b1-4)GlcNAc(b1-2)Man(a1-6)[Man(a1-3)]Man(b1-4)GlcNAc(b1-4)GlcNAc
How it was run: as §1

[21] = biological target: Neu5Ac(a2-6)Gal(b1-4)GlcNAc(b1-2)[Neu5Ac(a2-6)Gal(b1-4)GlcNAc(b1-4)]Man(a1-3)[GlcNAc(b1-4)][Neu5Ac(a2-6)Gal(b1-4)GlcNAc(b1-2)[Neu5Ac(a2-6)Gal(b1-4)GlcNAc(b1-6)]Man(a1-6)]Man(b1-4)GlcNAc(b1-4)GlcNAc
How it was run: as §1

[22] = biological target: Neu5Ac(a2-6)Gal(b1-4)GlcNAc(b1-2)[Neu5Ac(a2-6)Gal(b1-4)GlcNAc(b1-4)]Man(a1-3)[GlcNAc(b1-4)][Neu5Ac(a2-6)Gal(b1-4)GlcNAc(b1-4)Man(a1-6)]Man(b1-4)GlcNAc(b1-4)GlcNAc
How it was run: as §1

[23] = biological target: Neu5Ac(a2-6)Gal(b1-4)GlcNAc(b1-2)[Neu5Ac(a2-6)Gal(b1-4)GlcNAc(b1-6)]Man(a1-6)[Neu5Ac(a2-6)Gal(b1-4)GlcNAc(b1-2)Man(a1-3)][GlcNAc(b1-4)]Man(b1-4)GlcNAc(b1-4)GlcNAc
How it was run: as §1

[24] = biological target: Neu5Ac(a2-6)Gal(b1-4)GlcNAc(b1-3)Gal(b1-3)GlcNAc
How it was run: as §1

[25] = biological target: Neu5Ac(a2-6)Gal(b1-4)GlcNAc(b1-3)Gal(b1-4)GlcNAc
How it was run: as §1

[26] = biological target: Neu5Ac(a2-6)Gal(b1-4)GlcNAc(b1-3)Gal(b1-4)GlcNAc(b1-2)Man(a1-3)[Neu5Ac(a2-6)Gal(b1-4)GlcNAc(b1-3)Gal(b1-4)GlcNAc(b1-2)Man(a1-6)]GalNAc
How it was run: as §1

[27] = biological target: Neu5Ac(a2-6)Gal(b1-4)GlcNAc(b1-3)Gal(b1-4)GlcNAc(b1-3)Gal(b1-4)GlcNAc
How it was run: as §1

[28] = biological target: Neu5Ac(a2-6)Gal(b1-4)GlcNAc(b1-3)Gal(b1-4)GlcNAc(b1-3)Gal(b1-4)GlcNAc(b1-2)Man(a1-3)[Neu5Ac(a2-6)Gal(b1-4)GlcNAc(b1-3)Gal(b1-4)GlcNAc(b1-3)Gal(b1-4)GlcNAc(b1-2)Man(a1-6)]GalNAc
How it was run: as §1

[29] = biological target: Neu5Ac(a2-6)Gal(b1-4)GlcNAc(b1-3)Gal(b1-4)GlcNAc(b1-3)GalNAc
How it was run: as §1

[30] = biological target: Neu5Ac(a2-6)Gal(b1-4)GlcNAc(b1-3)Gal(b1-4)GlcNAc(b1-3)[Neu5Ac(a2-6)Gal(b1-4)GlcNAc(b1-3)Gal(b1-4)GlcNAc(b1-6)]GalNAc
How it was run: as §1

[31] = biological target: Neu5Ac(a2-6)Gal(b1-4)GlcNAc(b1-3)Gal(b1-4)GlcNAc(b1-6)[Gal(b1-3)]GalNAc
How it was run: as §1

[32] = biological target: Neu5Ac(a2-6)Gal(b1-4)GlcNAc(b1-3)Gal(b1-4)[Fuc(a1-3)]GlcNAc(b1-3)Gal(b1-4)[Fuc(a1-3)]GlcNAc
How it was run: as §1

[33] = biological target: Neu5Ac(a2-6)Gal(b1-4)GlcNAc(b1-3)GalNAc
How it was run: as §1

[34] = biological target: Neu5Ac(a2-6)Gal(b1-4)GlcNAc(b1-3)[Neu5Ac(a2-6)Gal(b1-4)GlcNAc(b1-6)]GalNAc
How it was run: as §1

[35] = biological target: Neu5Ac(a2-6)Gal(b1-4)GlcNAc(b1-6)GalNAc
How it was run: as §1

[36] = biological target: Neu5Ac(a2-6)Gal(b1-4)GlcNAc(b1-6)[Gal(b1-3)GlcNAc(b1-3)]Gal(b1-4)Glc
How it was run: as §1

[37] = biological target: Neu5Ac(a2-6)Gal(b1-4)GlcNAc(b1-6)[Gal(b1-3)]GalNAc
How it was run: as §1

[38] = biological target: Neu5Ac(a2-6)Gal(b1-4)GlcNAc6S
How it was run: as §1

Neu5Ac(a2-6)GalNAc = biological target: Neu5Ac(a2-6)GalNAc
How it was run: as §1

[39] = biological target: Neu5Ac(a2-6)GalNAc(b1-4)GlcNAc
How it was run: as §1

[40] = biological target: Neu5Ac(a2-6)GalNAc(b1-4)GlcNAc6S
How it was run: as §1

[41] = biological target: Neu5Ac(a2-6)GlcNAc(b1-4)GlcNAc
How it was run: as §1

B1: PX9961KLbvu-535-38-535 (Bacteroides vulgatus) (protein)
chain: DKAYTDAESYTKGLHKIYSVWALSGQDGSSSSDISGLDAGNTALLRCWWTLQEQPTDEMKNAWNDAWCTEVNYMTWTTNKVEPIEGVYQRCMYIVALVNEFLKNIPNAPESIDKESYIAQARFNRAFAYYVLMDMFALPPFITEKNYSIEPAPLSREDLFNWIEAELNEIKPNLPSPRSEYGVADQAVASALLARMYLNAEIYTGKARYTECINACNEVIKAGYQLADNYADLFKADNGENPDTKKEIIYPIIFDGDKTQSWGMAAIIIGARGAEDKDVLLAHSGVDQGWAGFRATSNLVHLFDFQNDEEPKASEIQDKRGIFYDKGRSIDITSSVSGTFETEGWSVFKFSNLNSNGQPGKNTLWVDTDFPMFRLGDIYLMYAEAVARGGEGSKASAVEYINALRKRAYGDDKHNISENWLEENNFRNLLDERGRELYWEGIRRTDLVRFDLLTSGSYTWDFKGGINTGVGVNKRYNVYPIPVTDLTVNGNLQQNEGY
Neu5Ac(a2-3)GalNAc
  glycan array binding signal (z-score): -0.201
[1]
  glycan array binding signal (z-score): -0.32
[2]
  glycan array binding signal (z-score): -0.237
[3]
  glycan array binding signal (z-score): -0.183
[4]
  glycan array binding signal (z-score): -0.004
[5]
  glycan array binding signal (z-score): 0.241
Neu5Ac(a2-6)Gal
  glycan array binding signal (z-score): 0.181
[6]
  glycan array binding signal (z-score): 0.302
Neu5Ac(a2-6)Gal(b1-4)Glc
  glycan array binding signal (z-score): -0.86
[7]
  glycan array binding signal (z-score): -0.009
[8]
  glycan array binding signal (z-score): 0.331
[9]
  glycan array binding signal (z-score): 0.228
[10]
  glycan array binding signal (z-score): -0.384
[11]
  glycan array binding signal (z-score): -0.663
[12]
  glycan array binding signal (z-score): 0.55
[13]
  glycan array binding signal (z-score): -0.575
[14]
  glycan array binding signal (z-score): 0.103
[15]
  glycan array binding signal (z-score): -0.052
[16]
  glycan array binding signal (z-score): 0.258
[17]
  glycan array binding signal (z-score): -0.118
[18]
  glycan array binding signal (z-score): -0.997
[19]
  glycan array binding signal (z-score): 0.537
[20]
  glycan array binding signal (z-score): -0.19
[21]
  glycan array binding signal (z-score): 0.412
[22]
  glycan array binding signal (z-score): -0.277
[23]
  glycan array binding signal (z-score): -0.019
[24]
  glycan array binding signal (z-score): 0.768
[25]
  glycan array binding signal (z-score): 0.42
[26]
  glycan array binding signal (z-score): 0.776
[27]
  glycan array binding signal (z-score): -0.49
[28]
  glycan array binding signal (z-score): 1.25
[29]
  glycan array binding signal (z-score): -0.817
[30]
  glycan array binding signal (z-score): 0.137
[31]
  glycan array binding signal (z-score): -0.167
[32]
  glycan array binding signal (z-score): 0.638
[33]
  glycan array binding signal (z-score): -1.14
[34]
  glycan array binding signal (z-score): -0.054
[35]
  glycan array binding signal (z-score): 1.1
[36]
  glycan array binding signal (z-score): -0.741
[37]
  glycan array binding signal (z-score): -0.121
[38]
  glycan array binding signal (z-score): -0.707
Neu5Ac(a2-6)GalNAc
  glycan array binding signal (z-score): -0.303
[39]
  glycan array binding signal (z-score): -0.718
[40]
  glycan array binding signal (z-score): -0.47
[41]
  glycan array binding signal (z-score): -0.213
